This is an account of results in PubChem BioAssay AID504375 (National Center for Advancing Translational Sciences (NCATS), 2011).

Chains of the proteins cited; added tags and fusions are not shown.
UniProt Q01196, whole entry, looked up: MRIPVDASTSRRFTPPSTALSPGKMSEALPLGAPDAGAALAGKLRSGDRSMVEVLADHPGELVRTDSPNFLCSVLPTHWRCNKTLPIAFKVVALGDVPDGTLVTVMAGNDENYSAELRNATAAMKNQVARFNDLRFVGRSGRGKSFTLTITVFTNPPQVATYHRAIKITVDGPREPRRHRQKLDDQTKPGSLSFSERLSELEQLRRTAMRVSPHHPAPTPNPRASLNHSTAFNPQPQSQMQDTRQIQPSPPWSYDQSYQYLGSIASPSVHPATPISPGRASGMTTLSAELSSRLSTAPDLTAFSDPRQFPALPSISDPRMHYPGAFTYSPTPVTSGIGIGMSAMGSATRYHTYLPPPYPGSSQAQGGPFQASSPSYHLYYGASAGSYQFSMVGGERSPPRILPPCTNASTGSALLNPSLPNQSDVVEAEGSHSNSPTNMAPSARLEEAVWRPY
UniProt Q13951, whole entry, looked up: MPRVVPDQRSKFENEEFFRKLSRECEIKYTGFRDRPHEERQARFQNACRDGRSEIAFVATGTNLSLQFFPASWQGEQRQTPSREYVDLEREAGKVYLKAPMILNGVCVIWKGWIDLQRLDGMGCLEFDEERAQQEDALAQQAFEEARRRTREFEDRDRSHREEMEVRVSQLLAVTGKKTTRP

Among all 1,600 compounds or so, about 25 (2%) were called active. About 7% were inconclusive and are not listed. Calls follow the shape of the dose curve; as a rule, active = well fitted inhibition curve with a large enough effect; inconclusive = small, poorly fitted or top-dose-only effect, or effect the other way; inactive = no such curve, though single readings can be large or run the other way. This is one part of the list.
% is scaled to controls: 0 for no effect and ±100 for the full control effect; potency is read from the fitted curve at half-maximal effect.

The assay has as its target Runt-related transcription factor 1 (Homo sapiens) + Core-binding factor subunit beta (Homo sapiens) (UniProt Q01196+Q13951). The assay can be described thus: qHTS Assay for Compounds Blocking the Interaction Between CBF-beta and RUNX1 for the Treatment of Acute Myeloid Leukemia: Hit Validation with Orthogonal Assay. The following applies: CBFbeta-RUNX1 binding orthogonal assay, biochemical; series mostly up to 41 µM; activity change, negative = inhibition: at the top concentration. Summed up:
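This is an orthogonal TR-FRET assay. His6-CBF-beta and biotin-RUNX1 (30 nM each) were preincubated with compound for 30 min, then Tb-anti-His antibody (0.44 ng) and streptavidin-XL665 (5 nM) were added. The signal was read after 90 min.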
As to `Cc1cccc(C)c1NC(=S)N1CC(C)OC(C)C1` (stereo unspecified), the “activity change, negative = inhibition” value was inactive: 1.41%.

For the molecule `Cc1c(-c2ccccc2)[n+](=O)c2c(n1[O-])CCCC2`, the “activity change, negative = inhibition” value was inactive: -8.42%. Still for that read-out and setting: next, `COc1cccc(/C=N/NC(=O)CCn2cnc3ccccc32)c1`: inactive: 1.09%; `COc1ccc(NC(=O)c2cccs2)cn1`: inactive: -6.46%. On the same count and under the same terms, next, `CCCCSc1cc(C)nc(N)n1`: inactive: 2.58%; `CCCCNC(=O)NCCN1CCOCC1`: inactive: 4.56%. Still for that read-out and setting: next, `Cc1csc2ncnc(N3CCN(C(=S)Nc4ccc(F)cc4F)CC3)c12`: inactive: 0.954%; `CSc1cccc(NC(=O)C(=O)NCc2ccccc2)c1`: inactive: 2.9%; `CCNc1nc(N)c(C(=O)C23CC4CC(CC(C4)C2)C3)s1`: inactive: 1.87%. For `COc1ccc(NC(=O)c2cc(S(=O)(=O)N3CCCC3)oc2C)cc1`, the “activity change, negative = inhibition” value was inactive: -17.2%. The same measure, in the same setting: next, `COc1ccc(-n2c(SCC(=O)Nc3cccc4ccccc34)nc(O)cc2=O)cc1`: inactive: 6.41%; `CCCCC1C2C(=O)N(c3ccc(C)cc3)C(=O)C2ON1c1ccccc1` (stereo unspecified): inactive: 1.76%; `C#CCCOC(=O)Nc1ccccc1`: inactive: -13.1%.

With `C=CN1CCCC1=O`, the “activity change, negative = inhibition” value was inactive: -6.45% [at 82.4 µM].

On to `Cc1nc(C)c(-c2ccn(C(=O)NC(C)C)n2)s1`, for which the “activity change, negative = inhibition” value was inactive: -3.96%. For `Cc1cc(C)nc(S/C=C/C(=O)c2ccc(F)cc2)n1`, the “activity change, negative = inhibition” value was inactive: -0.82%.

For `CC(=O)c1cnn(-c2c(Cl)cc(Cl)cc2Cl)c1C`, the “activity change, negative = inhibition” value was inactive: 9.66%. The same measure, in the same setting: as for `O=C(O)c1ccc(COc2ccc3c(c2)CCC3)cc1`, the figure is inactive: -1.79%; as for `CCOC(=O)c1cn2nc(Oc3ccc(C(=O)OC)cc3)ccc2n1`, inactive: -15.3%. Still for that read-out and setting: as for `C=CCN=C1S/C(=C\c2ccc(N(C)C)cc2)C(=O)N1CC=C`, the figure is inactive: 20%; as for `CCCCC12CN3CC(C)(CN(C1)C3c1ccc([N+](=O)[O-])o1)C2=O` (stereo unspecified), inactive: 42.5%. Same read-out and setting: next, `Cc1ccc(/C=N/n2c(-c3cccc(Cl)c3)n[nH]c2=S)o1`: inactive: -16.6%; `O=C(O)c1ccc(/C=N\Nc2ccc(S(=O)(=O)N3CCOCC3)cc2[N+](=O)[O-])cc1`: inactive: 30.7%. `Cc1ccc(C2=NN(C(=O)CCC(=O)O)C(c3cccs3)C2)cc1` (stereo unspecified): the “activity change, negative = inhibition” value was inactive: 3.91%.

As for `CNC(=O)/C(C#N)=C1\SC(Cc2ccc(F)cc2)C(=O)N1c1ccccc1C` (stereo unspecified), the “activity change, negative = inhibition” value was inactive: -6.1%. On the same count and under the same terms, next, `COc1cc(C(=O)NCC2(N3CCCCC3)CCCCC2)ccc1OCC(=O)N1CCOCC1`: inactive: 3.88%; `O=[N+]([O-])/C=C/c1cc2ccccc2[nH]1`: inactive: 1.95%; `CC(C)CC1C2C(=O)N(c3ccccc3)C(=O)C2ON1c1ccccc1` (stereo unspecified): inactive: -1.54%. Still for that read-out and setting: as for `Cc1cc(Cl)c2cc3ccccc3cc2n1`, the figure is inactive: -4.05%. The same measure, in the same setting: as for `COc1ccc(OC)c(/C=N/NC(=O)CCc2c(C)n[nH]c2C)c1`, the figure is inactive: 3.36%; as for `NC(=S)Nc1cccc(Cl)c1`, inactive: 12.5%; as for `COc1ccc(OC)c(/C=N/NC(=O)c2cnccn2)c1`, inactive: 26.2%. In the case of `CN1C2CCC1CC(NC(=O)c1ccc(Cl)cc1)C2` (stereo unspecified), the “activity change, negative = inhibition” value was inactive: 10.2%. Consider `Cc1cccc(-c2n[nH]c(=S)n2/N=C/C=C/c2ccco2)c1`, for which the “activity change, negative = inhibition” value is inactive: -17.8%. With `CC(=O)C1C(=O)CC(c2ccc(Cl)cc2)CC1=O` (stereo unspecified), the “activity change, negative = inhibition” value was inactive: -7.82%. Take `CCN(CC)C(=S)SSC(=S)N(CC)CC`: the “activity change, negative = inhibition” value is inactive: 8.2% [at 82.4 µM]. Still for that read-out and setting: as for `COC(=O)c1ccc(COc2ccc3c(c2)CCC3)o1`, the figure is inactive: 7.71%; as for `COc1ccc(/C=N/n2nnnc2N)cc1OC`, inactive: 17.3%; as for `c1ccc(-c2ccccn2)nc1`, inactive: 3.96% [at 82.4 µM]. With `COc1ccc(C(=O)/C=C/c2cn(CC(O)CN3CCN(C)CC3)c3ccccc23)cc1OC` (stereo unspecified), the “activity change, negative = inhibition” value is inactive: 10.2%. Regarding `Cc1nn2c(NCc3cccnc3)c3c(nc2c1-c1ccccc1)CCC3`, the “activity change, negative = inhibition” value was inactive: 3.16%.

Consider `O=C(CSc1n[nH]c(=O)[nH]c1=O)Nc1ccc2c(c1)C(=O)c1ccccc1C2=O`, for which the “activity change, negative = inhibition” value is inactive: 24.7%. Still for that read-out and setting: next, `CC(C)c1nc(C#N)c(NN)o1`: inactive: 9.26%; `N=c1c2c(ncn1CCCO)Oc1cc(O)ccc1C2c1ccccc1` (stereo unspecified): inactive: 1.47%. As to `CCOC(=O)c1nnsc1N`, the “activity change, negative = inhibition” value is inactive: -3.12%. With `CC(C)CCN1NC2(CCC(C)CC2)NC1=S` (stereo unspecified), the “activity change, negative = inhibition” value was inactive: -8.44%. Same read-out and setting: next, `COC(=O)c1scc(C)c1NC(=O)CSc1ccc(Cl)cc1`: inactive: 7.74%. Same read-out and setting: next, `O=C(Nc1ccc(F)cc1)N1CCCN(c2ccc(C(F)(F)F)cn2)CC1`: inactive: 3.83%; `O=C1Nc2c(ccc(Cl)c2Cl)C(=O)C1(F)c1ccccc1` (stereo unspecified): inactive: -0.171%. Same read-out and setting: as for `Nc1nc(CCl)nc(Nc2ccc3ccccc3c2)n1`, the figure is inactive: -14.2%; as for `COc1ccc(NS(=O)(=O)c2ccc(Oc3c(C#N)cccc3C#N)cc2)cc1`, inactive: 19.5%; as for `CC(C)(C)NC(=O)c1ccc(C(=O)NC(C)(C)C)cc1`, inactive: -8.67%.

`CC(C)(C)NC(=O)c1cccc2c1C(=O)c1ccccc1-2`: the “activity change, negative = inhibition” value was inactive: 19.1%.

With `O=C(NC(=S)Nc1cc(C(F)(F)F)ccc1N1CCOCC1)c1ccco1`, the “activity change, negative = inhibition” value was inactive: -11.6%.

As to `NNC(=O)c1ccc(COCC(F)(F)C(F)F)cc1`, the “activity change, negative = inhibition” value is inactive: 18.8%. Same read-out and setting: as for `CCNc1nc(Cl)nc(-c2cn(-c3ccccc3)c3ccccc23)n1`, the figure is inactive: -12.2%; as for `CCN(CC)C(=O)CSc1nnc2nnc3cc(Cl)ccc3n12`, inactive: 112%. Consider `NC(=S)Nc1cc(Cl)ccc1Cl`, for which the “activity change, negative = inhibition” value is inactive: 2.34%. On to `Cc1ccccc1/C=N/n1c(-c2ccccn2)n[nH]c1=S`, for which the “activity change, negative = inhibition” value was inactive: -0.917%. Still for that read-out and setting: as for `CC1CC(=O)Nc2ccccc2N1S(=O)(=O)c1ccc(C#N)cc1` (stereo unspecified), the figure is inactive: 6.45%. For `CN(C)c1nc(-c2ccccn2)nnc1-c1ccccc1`, the Potency is active: 22.4 µM.
